B1: Kunitz-type protease inhibitor 1 (protein, UniProt O43278 36-529, looked up)
Kunitz-type protease …: GPPPAPPGLPAGADCLNSFTAGVPGFVLDTNASVSNGATFLESPTVRRGWDCVRACCTTQNCNLALVELQPDRGEDAIAACFLINCLYEQNFVCKFAPREGFINYLTREVYRSYRQLRTQGFGGSGIPKAWAGIDLKVQPQEPLVLKDVENTDWRLLRGDTDVRVERKDPNQVELWGLKEGTYLFQLTVTSSDHPEDTANVTVTVLSTKQTEDYCLASNKVGRCRGSFPRWYYDPTEQICKSFVYGGCLGNKNNYLREEECILACRGVQGGPLRGSSGAQATFPQGPSMERRHPVCSGTCQPTQFRCSNGCCIDSFLECDDTPNCPDASDEAACEKYTSGFDELQRIHFPSDKGHCVDLPDTGLCKESIPRWYYNPFSEHCARFTYGGCYGNKNNFEEEQQCLESCRGISKKDVFGLRREIPIPSTGSVEMAVAVFLVICIVVVVAILGYCFFKNQRKDFHGHHHHPPPTPASSTVSTTEDTEHLVYNHTTRPL
B2: Adenylosuccinate lyase (protein, UniProt P30566 2-484, looked up)
Adenylosuccinate lyase: AAGGDHGSPDSYRSPLASRYASPEMCFVFSDRYKFRTWRQLWLWLAEAEQTLGLPITDEQIQEMKSNLENIDFKMAAEEEKRLRHDVMAHVHTFGHCCPKAAGIIHLGATSCYVGDNTDLIILRNALDLLLPKLARVISRLADFAKERASLPTLGFTHFQPAQLTTVGKRCCLWIQDLCMDLQNLKRVRDDLRFRGVKGTTGTQASFLQLFEGDDHKVEQLDKMVTEKAGFKRAFIITGQTYTRKVDIEVLSVLASLGASVHKICTDIRLLANLKEMEEPFEKQQIGSSAMPYKRNPMRSERCCSLARHLMTLVMDPLQTASVQWFERTLDDSANRRICLAEAFLTADTILNTLQNISEGLVVYPKVIERRIRQELPFMATENIIMAMVKAGGSRQDCHEKIRVLSQQAASVVKQEGGDNDLIERIQVDAYFSPIHSQLDHLLDPSSFTGRASQQVQRFLEEEVYPLLKPYESVMKVKAELCL
B3: ADP-ribosyl cyclase/cyclic ADP-ribose hydrolase 2 (protein, UniProt Q10588 33-293, looked up)
ADP-ribosyl cyclase/cyclic …: RWRGEGTSAHLRDIFLGRCAEYRALLSPEQRNKNCTAIWEAFKVALDKDPCSVLPSDYDLFINLSRHSIPRDKSLFWENSHLLVNSFADNTRRFMPLSDVLYGRVADFLSWCRQKNDSGLDYQSCPTSEDCENNPVDSFWKRASIQYSKDSSGVIHVMLNGSEPTGAYPIKGFFADYEIPNLQKEKITRIEIWVMHEIGGPNVESCGEGSMKVLEKRLKDMGFQYSCINDYRPVKLLQCVDHSTHPDCALKSAAAATQRKA
B4: Layilin (protein, UniProt Q6UX15 22-382, looked up)
Layilin: ATGRLLSASDLDLRGGQPVCRGGTQRPCYKVIYFHDTSRRLNFEEAKEACRRDGGQLVSIESEDEQKLIEKFIENLLPSDGDFWIGLRRREEKQSNSTACQDLYAWTDGSISQFRNWYVDEPSCGSEVCVVMYHQPSAPAGIGGPYMFQWNDDRCNMKNNFICKYSDEKPAVPSREAEGEETELTTPVLPEETQEEDAKKTFKESREAALNLAYILIPSIPLLLLLVVTTVVCWVWICRKRKREQPDPSTKKQHTIWPSPHQGNSPDLEVYNVIRKQSEADLAETRPDLKNISFRVCSGEATPDDMSCDYDNMAVNPSESGFVTLVSVESGFVTNDIYEFSPDQMGRSKESGWVENEIYGY
B5: Kallikrein-13 (protein, UniProt Q9UKR3 17-277, looked up)
Kallikrein-13: GGVSQESSKVLNTNGTSGFLPGGYTCFPHSQPWQAALLVQGRLLCGGVLVHPKWVLTAAHCLKEGLKVYLGKHALGRVEAGEQVREVVHSIPHPEYRRSPTHLNHDHDIMLLELQSPVQLTGYIQTLPLSHNNRLTPGTTCRVSGWGTTTSPQVNYPKTLQCANIQLRSDEECRQVYPGKITDNMLCAGTKEGGKDSCEGDSGGPLVCNRTLYGIVSWGDFPCGQPDRPGVYTRVSRYVLWIRETIRKYETQQQKWLKGPQ
B6: Legumain (protein, UniProt Q99538 18-323, looked up)
Legumain: VPIDDPEDGGKHWVVIVAGSNGWYNYRHQADACHAYQIIHRNGIPDEQIVVMMYDDIAYSEDNPTPGIVINRPNGTDVYQGVPKDYTGEDVTPQNFLAVLRGDAEAVKGIGSGKVLKSGPQDHVFIYFTDHGSTGILVFPNEDLHVKDLNETIHYMYKHKMYRKMVFYIEACESGSMMNHLPDNINVYATTAANPRESSYACYYDEKRSTYLGDWYSVNWMEDSDVEDLTKETLHKQYHLVKSHTNTSHVMQYGNKTISTMKVMQFQGMKRKASSPVPLPPVTHLDLTPSPDVPLTIMKRKLMNTN
B7: Kallikrein-8 (protein, UniProt O60259 33-260, looked up)
Kallikrein-8: VLGGHECQPHSQPWQAALFQGQQLLCGGVLVGGNWVLTAAHCKKPKYTVRLGDHSLQNKDGPEQEIPVVQSIPHPCYNSSDVEDHNHDLMLLQLRDQASLGSKVKPISLADHCTQPGQKCTVSGWGTVTSPRENFPDTLNCAEVKIFPQKKCEDAYPGQITDGMVCAGSSKGADTCQGDSGGPLVCDGALQGITSWGSDPCGRSDKPGVYTNICRYLDWIKKIIGSKG
B8: Kallikrein-12 (protein, UniProt Q9UKR0 18-248, looked up)
Kallikrein-12: ATPKIFNGTECGRNSQPWQVGLFEGTSLRCGGVLIDHRWVLTAAHCSGSRYWVRLGEHSLSQLDWTEQIRHSGFSVTHPGYLGASTSHEHDLRLLRLRLPVRVTSSVQPLPLPNDCATAGTECHVSGWGITNHPRNPFPDLLQCLNLSIVSHATCHGVYPGRITSNMVCAGGVPGQDACQGDSGGPLVCGGVLQGLVSWGSVGPCGQDGIPGVYTYICKYVDWIRMIMRNN
B9: Kunitz-type protease inhibitor 2 (protein, UniProt O43291 28-252, looked up)
Kunitz-type protease …: ADRERSIHDFCLVSKVVGRCRASMPRWWYNVTDGSCQLFVYGGCDGNSNNYLTKEECLKKCATVTENATGDLATSRNAADSSVPSAPRRQDSEDHSSDMFNYEEYCTANAVTGPCRASFPRWYFDVERNSCNNFIYGGCRGNKNSYRSEEACMLRCFRQQENPPLPLGSKVVVLAGLFVMVLILFLGASMVYLIRVARRNQERALRTVWSSGDDKEQLVKNTYVL
B10: Kininogen-1 (protein, UniProt P01042 19-644, looked up)
Kininogen-1: QESQSEEIDCNDKDLFKAVDAALKKYNSQNQSNNQFVLYRITEATKTVGSDTFYSFKYEIKEGDCPVQSGKTWQDCEYKDAAKAATGECTATVGKRSSTKFSVATQTCQITPAEGPVVTAQYDCLGCVHPISTQSPDLEPILRHGIQYFNNNTQHSSLFMLNEVKRAQRQVVAGLNFRITYSIVQTNCSKENFLFLTPDCKSLWNGDTGECTDNAYIDIQLRIASFSQNCDIYPGKDFVQPPTKICVGCPRDIPTNSPELEETLTHTITKLNAENNATFYFKIDNVKKARVQVVAGKKYFIDFVARETTCSKESNEELTESCETKKLGQSLDCNAEVYVVPWEKKIYPTVNCQPLGMISLMKRPPGFSPFRSSRIGEIKEETTVSPPHTSMAPAQDEERDSGKEQGHTRRHDWGHEKQRKHNLGHGHKHERDQGHGHQRGHGLGHGHEQQHGLGHGHKFKLDDDLEHQGGHVLDHGHKHKHGHGHGKHKNKGKKNGKHNGWKTEHLASSSEDSTTPSAQTQEKTEGPTPIPSLAKPGVTVTFSDFQDSDLIATMMPPISPAPIQSDDDWIPDIQIDPNGLSFNPISDFPDTTSPKCPGRPWKSVSEINPTTQMKESYYFDLTDGLS

Test system: proteins in oral lavage
Assay: Abundance of proteins in human oral lavage (SomaLogic), TABLE 1
Assay type: in vivo
Details: for Means (Original Scale) High bleeder BL / Means (Original Scale) High bleeder W4 / Means (Original Scale) Low bleeder BL: abundance in oral lavage; for Means (Original Scale) High bleeder BL: high bleeders (gingivitis); for Means (Original Scale) High bleeder BL / Means (Original Scale) Low bleeder BL: baseline; for Means (Original Scale) High bleeder W4 / Fold Change High bleeder W4 vs High bleeder BL: high bleeders; for Means (Original Scale) High bleeder W4: week 4 of investigative products; for Means (Original Scale) Low bleeder BL: low bleeders (healthy); for Fold Change High bleeder BL vs Low bleeder BL / Fold Change High bleeder W4 vs High bleeder BL: oral lavage; for Fold Change High bleeder BL vs Low bleeder BL: high bleeders vs low bleeders at baseline; for Fold Change High bleeder W4 vs High bleeder BL: week 4 of investigative products vs baseline

Molecule	Means (Original Scale) High bleeder BL	Means (Original Scale) High bleeder W4	Means (Original Scale) Low bleeder BL	Fold Change High bleeder BL vs Low bleeder BL	Fold Change High bleeder W4 vs High bleeder BL
B1	4290	2333	2020	2.09	0.55
B2	1990	1160	241	6.74	0.63
B3	35309	21260	14521	2.53	0.59
B4	635	374	342	1.89	0.61
B5	53398	32056	16522	3.40	0.65
B6	65072	41251	23410	2.73	0.66
B7	33249	19220	15860	1.84	0.67
B8	22605	9720	523	6.84	0.76
B9	414	303	304	1.32	0.76
B10	95635	35597	13797	8.91	0.52

Source: patent US20180320217A1, “METHODS FOR SAMPLING AND MEASURING ORAL LAVAGE PROTEINS” (The Procter & Gamble Company, priority 2017, published 2018)
